# PubChem BioAssay AID1259425 – University of Nebraska Medical Center | 2018
# Assay: 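Seek colon cancer weak points whose silencing resembles KSR1 loss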 (primary screen)
# System: HCT116 human colon cancer cells
# Reagent: siRNA pool against human genes, 50 nM siRNA
# Measured: 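After 50 nM siRNA pool, branched-DNA assay measures six marker transcripts per well, minus blank, normalised to the geometric mean of two housekeeping transcripts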
# Reading the numbers: BNIP3L mRNA: higher = more BNIP3L transcript after knockdown; NDRG1 mRNA: higher = more NDRG1 transcript after knockdown; BNIP3 mRNA: higher = more BNIP3 transcript after knockdown; ALDOC mRNA: higher = more ALDOC transcript after knockdown; ACSL5 mRNA: higher = more ACSL5 transcript after knockdown
# This is an unselected part of about 14,000 reagents tested. The numbers tell different reagents against one gene apart. The record does not give: the time to read-out.
gene symbol,pool no.,"BNIP3L mRNA, set 1","NDRG1 mRNA, set 1","BNIP3 mRNA, set 1","ALDOC mRNA, set 1","ACSL5 mRNA, set 1"
ARHGAP29,1,0.0714,0.356,0.245,0.0185,0.0976
NCAM1,1,0.0651,0.347,0.295,0.0117,0.16
VCX3A,1,0.119,0.15,0.309,0.0174,0.109
TRAPPC14,1,0.179,0.206,0.327,0.0386,0.35
DDX46,1,0.185,0.223,0.36,0.0573,0.237
CCR7,1,0.169,0.613,0.22,0.027,0.228
C11orf68,1,0.0584,0.12,0.182,0.0298,0.154
ALKBH5,1,0.188,0.221,0.35,0.0257,0.318
DGAT2,1,0.0767,0.457,0.254,0.0419,0.159
CCT6B,1,0.151,0.124,0.316,0.0241,0.165
ZAP70,1,0.119,0.109,0.283,0.00249,0.154
KMT2C,1,0.0821,0.513,0.322,0.025,0.203
GLYAT,1,0.0747,0.11,0.28,0.0278,0.181
HLA-DMB,1,0.0826,0.158,0.273,0.0221,0.144
GCNT2,1,0.123,0.504,0.319,0.0423,0.181
TRAPPC9,1,0.165,0.244,0.345,0.0916,0.339
ADAMTS2,1,0.193,0.631,0.695,-0.0151,0.779
FADS1,1,0.109,0.303,0.338,0.0192,0.203
GPX1,1,0.0957,0.145,0.385,0.0148,0.0757
UBE2Z,1,0.15,0.306,0.329,-0.000615,0.401
PRKD3,1,0.254,0.327,0.609,-0.00199,0.475
ATG16L1,1,0.172,0.326,0.252,0.0278,0.227
UVRAG,1,0.231,0.108,0.282,0.0604,0.138

Individual results from above.
PRKD3, ACSL5 mRNA, set 1 = 0.475
ARHGAP29, BNIP3 mRNA, set 1: 0.245
For “NDRG1 mRNA, set 1”, FADS1 has 0.303
For “BNIP3 mRNA, set 1”, HLA-DMB shows 0.273

The list goes on.
gene symbol,pool no.,"BNIP3L mRNA, set 1","NDRG1 mRNA, set 1","BNIP3 mRNA, set 1","ALDOC mRNA, set 1","ACSL5 mRNA, set 1"
RIN3,1,0.128,0.414,0.326,0.0579,0.268
NCALD,1,0.35,0.42,0.32,0.0637,0.581
PRB3,1,0.0842,0.127,0.395,0.0117,0.102
DYRK3,1,0.0381,0.0787,0.275,0.0154,0.199
MBTPS2,1,0.0408,0.24,0.209,0.0181,0.184
ADH5P4,1,0.0781,0.568,0.3,0.0366,0.173
TUBA1A,1,0.085,0.36,0.267,0.012,0.177
ITGB1,1,0.184,0.218,0.446,0.0417,0.185
CCR5,1,0.0576,0.108,0.212,0.0151,0.0885
MRPS28,1,0.061,0.217,0.341,0.0324,0.196
NOB1,1,0.264,0.183,0.571,0.0923,0.0514
PPHLN1,1,0.133,0.221,0.376,0.0363,0.172
NRIP2,1,0.177,0.138,0.348,0.0241,0.138
ATP1A3,1,0.0878,0.0728,0.164,0.0289,0.0865
GSTM4,1,0.0729,0.413,0.308,0.0803,0.0918
RAB25,1,0.105,0.146,0.224,0.0287,0.11
PTGR1,1,0.0798,0.163,0.261,0.0289,0.165
ALG13,1,0.15,0.142,0.278,0.0709,0.0711
ALG13,2,0.14,0.206,0.217,0.0492,0.145
CTBP1,1,0.109,0.358,0.441,0.048,0.176
DGUOK,1,0.213,0.0517,0.38,0.017,0.293
DYDC2,1,0.1,0.254,0.245,0.116,0.507
DUSP18,1,0.0969,0.281,0.392,0.0398,0.243
FGGY,1,0.0956,0.0955,0.355,0.0234,0.0988
PTCD2,1,0.122,0.132,0.188,0.023,0.207
NABP1,1,0.144,1.04,0.338,0.0474,0.248
OGFOD3,1,0.153,0.118,0.352,0.0266,0.132
CBLN1,1,0.129,0.168,0.323,0.0178,0.207
ZNF250,1,0.176,0.0991,0.289,0.0129,0.356
CCDC8,1,0.212,0.413,0.334,0.0784,0.356
CGN,1,0.17,0.26,0.333,0.0612,0.201
COL1A2,1,0.119,0.711,0.306,0.0163,0.344
HOXC11,1,0.128,0.0907,0.264,0.00525,0.0996
PRKACG,1,0.0766,0.495,0.335,0.00813,0.209
GCC1,1,0.165,1.14,0.414,0.0412,0.394
TAF1,1,0.109,0.186,0.427,0.0109,0.21
LAMTOR1,1,0.0825,0.146,0.24,0.0294,0.102
TTBK2,1,0.0855,0.432,0.428,0.00851,0.27
SUB1,1,0.151,0.121,0.401,0.0285,0.115
FAM162A,1,0.13,0.092,0.569,0.0324,0.115
